Results reported in patent US20040228930A1, “Treatment for hemorrhagic shock” (priority 2002, published 2004).

Test: Central hemodynamics (MAP, heart rate, shed blood volume) in sham and shocked mice
Format: in vivo

With `[C-]#[O+]` [CO, carbon monoxide] the “MAP (Sham)” value (sham mice, CO 250 ppm inhaled) was 68.9 ± 6.0 mmHg, the “effect on MAP compared to air controls” value (sham operated mice, CO 250 ppm) was “did not alter” and the “effect on heart rate compared to air controls” value (sham operated mice, CO 250 ppm) was “did not alter”. The “volume of hemorrhaged blood shed to achieve a MAP of 25 mmHg, CO-treated vs air-treated” value (shocked mice, CO 250 ppm) was “the same” and the “Shed Blood (Shock)” value (shocked mice, blood volume shed to achieve MAP of 25 mmHg, CO 250 ppm inhaled) was 0.69 ± 0.6 mL.
